The list shows a part of the results. Single values are uncertain, as repeats are few or missing.
Test system: Trypanosoma brucei brucei bloodstream form L262P (kDNA-independent)
Assay: viability Z-score (nuclei count per well, median-polish normalised, relative to plate distribution); higher = more viable parasites (negative = growth inhibition)
Conditions: 4 days; compound concentration: 10 µM (some Prestwick/PKE rows may be 1 µM / not distinguished)

Row | SMILES | viability Z-score
1 | O=C(N/C1=N/O/N=C1/C3=N/C=2C=CC=CC=2N3CC=4C=CC=CC=4)C=5C=CC([F])=CC=5 | -1.78
2 | N#CC(=NNc1ccc(Cl)cc1)C(N)=S | -4.76
3 | Cn1c(N/N=C/c2cn(Cc3ccccc3)c3ccccc23)nc2ccccc21 | -1.04
4 | O=[N+]([O-])c1cc2c(c(COc3ccc(Cl)cc3Cl)c1)OCOC2 | -4.47
5 | CC[N+](CC)(CC)CCC(O)(c1ccccc1)C1CCCCC1.[Cl-] (stereo not drawn) [Tridihexethyl chloride] | -7.33
6 | CN(C)CCCn1cc(C2=C(c3c[nH]c4ccccc34)C(=O)NC2=O)c2ccccc21 | -3.71
7 | Cc1ccccc1C(=O)N1CC(=O)Nc2ccc(F)cc2[C@H]1c1ccccc1 | -3.76
8 | CN([C@H](Cc1ccc(OS(=O)(=O)c2cccc3cnccc23)cc1)C(=O)N1CCN(c2ccccc2)CC1)S(=O)(=O)c1cccc2cnccc12 | -3.86
9 | COC(=O)C[C@H](NC(=O)[C@H](C)NC(=O)[C@@H](NC(=O)OCc1ccccc1)C(C)C)C(=O)CF | -4.14
10 | CC1=C2C(=O)c3ccccc3O[C@]23CC[C@H]1[C@H]1C(=O)N(C)C(=O)[C@H]13 | -4.62
11 | CC(C)c1nnc(NC(=O)CCC(=O)O)s1 | -5.21
12 | O=C(N[C@@]1([H])C[C@@]2([H])CCC[C@]([H])(C1)N2CCCC)N3CCCC3 (stereo partly drawn) | -5.32
13 | O=C(N[C@]([H])(NC=1C=CC=CC=1[F])C(=O)C2=CC=CC=C2)C3=C/C=C(/[Cl])C=C3 | -1.21
14 | CCN(CC)c1ccc(/C=N/NC(=O)CSc2nnc(SCc3ccccc3)s2)c(O)c1 | -4.54
15 | CC(C)(C)NCC(O)c1cc(O)cc(O)c1.CC(C)(C)NCC(O)c1cc(O)cc(O)c1 (stereo not drawn) [Terbutaline hemisulfate] | -1.33
16 | COCC(=O)Nc1c(I)c(C(=O)NCC(O)CO)c(I)c(C(=O)N(C)CC(O)CO)c1I (stereo not drawn) [Iopromide] | -4.88
17 | C1(c2c(/N=C(\N1)/C)ccc(c2)CN(c1sc(C(N[C@H](C(=O)O)CCC(=O)O)=O)cc1)C)=O [Raltitrexed] | -3.47

Row | SMILES | viability Z-score
18 | Cc1nc(NC(=O)C2CCCCC2)sc1C(=O)Nc1ccc2c(c1)OCCO2 | -2.17
19 | COc1cccc(/C=N/NC(=O)[C@@H]2CCCN(C(=S)NN[C@H]3C[C@@H]4C=C[C@H]3C4)CC2)c1O | -6.88
20 | CC1=C(C(=O)OCc2ccccc2)[C@@H](c2ccccc2Br)CC(=O)N1 | -1.72
21 | C/C(=N/O)c1ccc2ccccc2c1 | -5.55
22 | O=C(N1CC[C@](C)([H])CC1)C23C[C@@]4(C)C[C@@](C)(C2)CC([H])(C3)C4 | -5.2
23 | CCOC(=O)CN1N=C(c2ccc(Cl)s2)CSC1=O | -1.47
24 | O=C1Nc2ccccc2/C1=C1/Nc2ccccc2/C1=N\O [Indirubin-3'-monooxime] | -2.72
25 | [S]=C(NC(=O)C=1C=CC=CC=1[I])N/C2=N/C=C/C=C2/O | -4.41
26 | N=c1[nH]c(-c2ccc3c(c2)OCCO3)cs1 | -6.1
27 | O=C2C=1N(CCC)C(=NC=1N(C)C(=O)N2C)N3CCN(CC3)C(=[S])NC=4C=C/C=C(/C)C=4C | -3.61
28 | [C@@]12([C@@]([C@]3([C@@](C[C@@H]1O)(OC3)[H])OC(=O)C)([C@@H]([C@]1(C(\C(\[C@H](C2=O)OC(=O)C)=C(/[C@H](C1)OC([C@@H]([C@@H](NC(=O)c1ccccc1)c1ccccc1)O)=O)\C)(C)C)O)OC(=O)c1ccccc1)[H])C [Paclitaxel] | -4.63
29 | CC(CC1(CC(C)C)CCCCC1)=NNC(N)=O | -3.09
30 | C=CC[C@H]1C[C@@H](COC(c2ccccc2)(c2ccccc2)c2ccccc2)OC1=O | -6.28
31 | C=1\2/[C@]([C@@H](OC(=O)[C@H](CC)C)C[C@@H](\C1)O)([C@@H](CC[C@H](C[C@H](CC(=O)O)O)O)[C@H](\C=C2)C)[H] [Pravastatin] | -4.37
32 | CSc1ccc([C@H]2C3=C(CCCC3=O)Nc3ccc4ccccc4c32)cc1 | -3.16
33 | O=C(O)C[S]/C1=C(/NC=2C=CC=CC1=2)C3=CC=CC=C3 | -2.69

Rewritten as labelled records: part of the list above.
COc1cccc(/C=N/NC(=O)[C@@H]2CCCN(C(=S)NN[C@H]3C[C@@H]4C=C[C@H]3C4)CC2)c1O
  viability Z-score: -6.88
CC1=C(C(=O)OCc2ccccc2)[C@@H](c2ccccc2Br)CC(=O)N1
  viability Z-score: -1.72

Reference: the supplement of paper PMC8846439
